Measurements taken from the supplement of paper PMC10849652.
The list shows a part of the results.

Chains of the proteins cited; added tags and fusions are not shown. Lines headed by an entry give the natural chain unless they say otherwise; changes in a name come on top.
UniProt P21399: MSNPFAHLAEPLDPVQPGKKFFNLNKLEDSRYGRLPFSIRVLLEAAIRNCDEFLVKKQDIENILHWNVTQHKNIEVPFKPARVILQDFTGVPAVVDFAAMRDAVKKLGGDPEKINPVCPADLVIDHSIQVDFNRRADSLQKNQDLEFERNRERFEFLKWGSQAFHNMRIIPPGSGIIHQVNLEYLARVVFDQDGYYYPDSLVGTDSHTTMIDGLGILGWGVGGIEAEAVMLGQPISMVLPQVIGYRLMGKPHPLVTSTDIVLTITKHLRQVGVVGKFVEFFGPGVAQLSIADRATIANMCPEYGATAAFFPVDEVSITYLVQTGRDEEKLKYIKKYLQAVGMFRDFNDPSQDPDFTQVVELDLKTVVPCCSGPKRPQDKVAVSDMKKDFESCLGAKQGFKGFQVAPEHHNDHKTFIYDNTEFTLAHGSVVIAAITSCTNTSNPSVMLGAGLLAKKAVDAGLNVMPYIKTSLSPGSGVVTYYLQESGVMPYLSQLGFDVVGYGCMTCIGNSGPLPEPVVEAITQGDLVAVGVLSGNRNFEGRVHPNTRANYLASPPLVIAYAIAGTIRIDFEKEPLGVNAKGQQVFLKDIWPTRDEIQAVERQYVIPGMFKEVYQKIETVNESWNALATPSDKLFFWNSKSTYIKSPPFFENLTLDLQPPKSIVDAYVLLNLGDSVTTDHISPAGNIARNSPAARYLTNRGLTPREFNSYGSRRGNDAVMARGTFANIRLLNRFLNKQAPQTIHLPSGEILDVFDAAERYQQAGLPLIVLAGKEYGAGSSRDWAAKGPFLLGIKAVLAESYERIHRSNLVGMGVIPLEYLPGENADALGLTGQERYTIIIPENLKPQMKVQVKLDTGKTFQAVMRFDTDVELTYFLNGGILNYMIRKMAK
UniProt Q8IZP0: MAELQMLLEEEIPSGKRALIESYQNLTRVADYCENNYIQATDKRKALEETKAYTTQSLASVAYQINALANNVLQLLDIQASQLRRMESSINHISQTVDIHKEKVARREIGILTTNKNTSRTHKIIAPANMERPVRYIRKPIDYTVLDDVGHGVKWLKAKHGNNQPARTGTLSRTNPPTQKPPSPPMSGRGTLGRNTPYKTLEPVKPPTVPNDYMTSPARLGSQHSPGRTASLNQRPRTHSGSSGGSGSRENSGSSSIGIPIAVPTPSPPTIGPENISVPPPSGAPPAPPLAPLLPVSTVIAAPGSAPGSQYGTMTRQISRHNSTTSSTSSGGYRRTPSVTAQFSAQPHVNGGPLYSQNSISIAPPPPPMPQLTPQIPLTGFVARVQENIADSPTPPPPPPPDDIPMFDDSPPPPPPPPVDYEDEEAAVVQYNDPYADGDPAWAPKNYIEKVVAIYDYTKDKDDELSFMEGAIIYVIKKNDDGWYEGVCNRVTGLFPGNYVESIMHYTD
UniProt Q8NE71: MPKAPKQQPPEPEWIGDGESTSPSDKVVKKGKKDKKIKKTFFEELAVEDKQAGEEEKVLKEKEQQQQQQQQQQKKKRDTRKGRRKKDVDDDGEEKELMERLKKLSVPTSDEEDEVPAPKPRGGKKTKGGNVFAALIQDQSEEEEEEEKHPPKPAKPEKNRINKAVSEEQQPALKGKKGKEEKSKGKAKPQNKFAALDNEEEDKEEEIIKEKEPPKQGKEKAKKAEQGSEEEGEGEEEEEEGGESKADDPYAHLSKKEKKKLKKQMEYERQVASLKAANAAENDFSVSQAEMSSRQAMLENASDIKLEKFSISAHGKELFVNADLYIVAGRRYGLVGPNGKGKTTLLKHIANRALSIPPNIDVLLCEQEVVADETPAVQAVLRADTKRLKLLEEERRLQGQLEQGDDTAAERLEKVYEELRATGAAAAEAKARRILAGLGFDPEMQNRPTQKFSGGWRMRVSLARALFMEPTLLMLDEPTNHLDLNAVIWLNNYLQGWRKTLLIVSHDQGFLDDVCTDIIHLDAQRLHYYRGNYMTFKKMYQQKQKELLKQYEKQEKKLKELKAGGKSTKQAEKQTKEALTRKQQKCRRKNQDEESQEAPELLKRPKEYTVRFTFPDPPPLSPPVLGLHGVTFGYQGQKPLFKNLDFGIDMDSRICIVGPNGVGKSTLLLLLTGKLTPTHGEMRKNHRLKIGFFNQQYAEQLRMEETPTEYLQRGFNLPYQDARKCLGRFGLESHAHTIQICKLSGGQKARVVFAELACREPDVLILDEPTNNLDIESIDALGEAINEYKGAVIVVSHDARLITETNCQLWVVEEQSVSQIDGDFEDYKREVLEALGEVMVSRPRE
UniProt Q6PD74: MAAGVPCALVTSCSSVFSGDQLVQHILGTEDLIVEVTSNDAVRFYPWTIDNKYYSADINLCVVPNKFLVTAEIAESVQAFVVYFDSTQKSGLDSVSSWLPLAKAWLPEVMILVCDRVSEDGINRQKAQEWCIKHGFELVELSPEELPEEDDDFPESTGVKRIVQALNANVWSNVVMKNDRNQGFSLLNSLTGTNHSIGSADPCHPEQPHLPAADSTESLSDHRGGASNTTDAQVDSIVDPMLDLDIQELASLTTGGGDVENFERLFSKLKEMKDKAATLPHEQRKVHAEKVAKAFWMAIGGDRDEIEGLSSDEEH
UniProt P78363: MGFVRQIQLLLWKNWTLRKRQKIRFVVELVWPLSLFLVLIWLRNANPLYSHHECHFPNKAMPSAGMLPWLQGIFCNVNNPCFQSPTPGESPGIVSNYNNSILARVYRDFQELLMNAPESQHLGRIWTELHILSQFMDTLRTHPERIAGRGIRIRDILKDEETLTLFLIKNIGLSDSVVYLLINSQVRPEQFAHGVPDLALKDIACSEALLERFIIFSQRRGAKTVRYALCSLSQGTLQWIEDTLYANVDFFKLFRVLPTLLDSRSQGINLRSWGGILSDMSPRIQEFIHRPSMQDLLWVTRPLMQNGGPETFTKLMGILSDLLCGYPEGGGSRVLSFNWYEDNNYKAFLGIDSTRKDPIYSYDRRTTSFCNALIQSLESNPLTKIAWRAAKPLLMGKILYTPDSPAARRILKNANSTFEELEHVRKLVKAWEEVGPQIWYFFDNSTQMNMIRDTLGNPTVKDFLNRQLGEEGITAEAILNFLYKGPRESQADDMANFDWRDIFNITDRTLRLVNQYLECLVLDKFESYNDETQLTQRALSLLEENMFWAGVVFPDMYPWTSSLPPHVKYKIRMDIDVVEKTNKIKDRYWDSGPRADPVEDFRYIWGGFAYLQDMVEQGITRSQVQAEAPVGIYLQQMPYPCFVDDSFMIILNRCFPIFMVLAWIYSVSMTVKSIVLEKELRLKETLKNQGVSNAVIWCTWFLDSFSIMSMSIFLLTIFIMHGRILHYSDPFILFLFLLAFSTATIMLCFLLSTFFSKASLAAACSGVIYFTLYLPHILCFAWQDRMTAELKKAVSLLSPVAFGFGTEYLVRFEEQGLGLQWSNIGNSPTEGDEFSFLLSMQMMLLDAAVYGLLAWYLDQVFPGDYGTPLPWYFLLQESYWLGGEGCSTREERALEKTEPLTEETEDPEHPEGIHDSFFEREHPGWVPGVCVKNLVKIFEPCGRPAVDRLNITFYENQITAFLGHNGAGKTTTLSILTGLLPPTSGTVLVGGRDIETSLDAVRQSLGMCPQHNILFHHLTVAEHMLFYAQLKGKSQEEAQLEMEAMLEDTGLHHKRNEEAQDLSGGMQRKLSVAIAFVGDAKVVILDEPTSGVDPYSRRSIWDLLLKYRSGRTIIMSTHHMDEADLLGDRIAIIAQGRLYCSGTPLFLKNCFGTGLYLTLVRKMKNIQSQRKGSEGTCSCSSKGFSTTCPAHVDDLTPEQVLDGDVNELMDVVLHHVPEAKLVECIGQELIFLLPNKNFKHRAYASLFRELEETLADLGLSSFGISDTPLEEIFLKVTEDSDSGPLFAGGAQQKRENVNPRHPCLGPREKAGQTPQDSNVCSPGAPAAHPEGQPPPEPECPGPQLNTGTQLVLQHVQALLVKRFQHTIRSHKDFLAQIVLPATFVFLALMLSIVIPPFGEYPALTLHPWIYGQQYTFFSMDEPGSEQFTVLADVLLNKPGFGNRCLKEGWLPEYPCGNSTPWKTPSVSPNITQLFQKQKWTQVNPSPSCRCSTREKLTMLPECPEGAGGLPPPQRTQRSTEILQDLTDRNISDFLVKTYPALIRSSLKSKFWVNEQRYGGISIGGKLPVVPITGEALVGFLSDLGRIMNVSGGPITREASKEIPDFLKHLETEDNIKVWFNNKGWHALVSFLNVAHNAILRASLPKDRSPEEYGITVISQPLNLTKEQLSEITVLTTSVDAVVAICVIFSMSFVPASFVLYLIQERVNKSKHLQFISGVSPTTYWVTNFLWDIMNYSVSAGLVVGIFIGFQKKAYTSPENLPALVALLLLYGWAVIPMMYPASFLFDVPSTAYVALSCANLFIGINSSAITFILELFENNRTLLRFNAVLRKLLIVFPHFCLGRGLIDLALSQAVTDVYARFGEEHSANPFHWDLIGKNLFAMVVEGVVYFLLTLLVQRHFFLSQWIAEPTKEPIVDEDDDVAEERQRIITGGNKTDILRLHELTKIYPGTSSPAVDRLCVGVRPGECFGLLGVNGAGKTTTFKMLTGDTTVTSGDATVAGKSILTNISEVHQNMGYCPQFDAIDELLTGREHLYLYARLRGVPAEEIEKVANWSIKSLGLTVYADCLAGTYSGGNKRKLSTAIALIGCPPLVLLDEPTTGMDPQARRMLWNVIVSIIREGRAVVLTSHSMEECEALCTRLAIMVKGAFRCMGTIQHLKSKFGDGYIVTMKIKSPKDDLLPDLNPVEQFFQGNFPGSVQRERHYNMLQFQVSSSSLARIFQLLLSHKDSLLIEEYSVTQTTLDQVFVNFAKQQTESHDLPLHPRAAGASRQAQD
UniProt Q9NRK6: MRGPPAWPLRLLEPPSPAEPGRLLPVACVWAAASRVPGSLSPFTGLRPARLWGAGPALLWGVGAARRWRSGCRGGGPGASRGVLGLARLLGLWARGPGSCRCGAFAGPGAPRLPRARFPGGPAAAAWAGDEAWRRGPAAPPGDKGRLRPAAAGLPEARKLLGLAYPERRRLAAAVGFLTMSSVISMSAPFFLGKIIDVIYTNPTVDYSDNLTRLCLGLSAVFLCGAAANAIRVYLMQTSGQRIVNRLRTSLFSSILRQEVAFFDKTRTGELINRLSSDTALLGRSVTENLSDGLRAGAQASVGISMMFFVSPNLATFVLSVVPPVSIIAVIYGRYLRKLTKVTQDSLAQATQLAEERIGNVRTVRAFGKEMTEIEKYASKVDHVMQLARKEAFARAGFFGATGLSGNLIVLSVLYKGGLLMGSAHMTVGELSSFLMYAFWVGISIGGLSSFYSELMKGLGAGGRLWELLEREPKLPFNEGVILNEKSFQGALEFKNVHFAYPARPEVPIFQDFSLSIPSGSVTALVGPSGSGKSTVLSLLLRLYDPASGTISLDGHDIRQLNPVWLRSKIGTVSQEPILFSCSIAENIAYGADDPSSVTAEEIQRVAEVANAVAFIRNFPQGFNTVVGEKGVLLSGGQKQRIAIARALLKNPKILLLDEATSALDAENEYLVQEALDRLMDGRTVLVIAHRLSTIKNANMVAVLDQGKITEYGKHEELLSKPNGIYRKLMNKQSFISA
UniProt Q99798: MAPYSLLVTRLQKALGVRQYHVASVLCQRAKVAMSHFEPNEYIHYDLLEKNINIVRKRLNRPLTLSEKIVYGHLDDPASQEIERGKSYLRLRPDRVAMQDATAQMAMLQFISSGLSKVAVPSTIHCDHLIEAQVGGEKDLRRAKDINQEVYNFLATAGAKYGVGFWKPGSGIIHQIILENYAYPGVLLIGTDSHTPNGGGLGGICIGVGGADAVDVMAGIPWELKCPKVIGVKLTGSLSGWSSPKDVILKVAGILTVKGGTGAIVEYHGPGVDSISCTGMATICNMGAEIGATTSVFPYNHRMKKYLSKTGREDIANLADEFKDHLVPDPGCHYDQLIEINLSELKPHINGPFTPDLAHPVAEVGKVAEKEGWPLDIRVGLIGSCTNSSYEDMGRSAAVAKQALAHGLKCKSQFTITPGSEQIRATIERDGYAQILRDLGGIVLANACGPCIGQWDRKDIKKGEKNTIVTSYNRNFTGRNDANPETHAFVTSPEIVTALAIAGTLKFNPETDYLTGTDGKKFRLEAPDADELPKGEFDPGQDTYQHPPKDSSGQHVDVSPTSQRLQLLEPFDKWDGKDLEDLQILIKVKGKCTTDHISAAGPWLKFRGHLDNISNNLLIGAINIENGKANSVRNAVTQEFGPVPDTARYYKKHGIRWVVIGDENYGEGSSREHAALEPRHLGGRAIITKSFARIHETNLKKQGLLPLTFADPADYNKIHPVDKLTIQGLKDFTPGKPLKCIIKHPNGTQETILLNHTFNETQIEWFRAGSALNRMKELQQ

Key:
Test in all cases: log2 fold change, soluble protein after heating vs DMSO (PISA); higher = thermal stabilisation; K562 lysate, 10 uM; active = over 0.2 and 3.5 SD of the protein, either way, in both replicates (recomputed)
[1] = compound: C1=CC=C(C=C1)[C@H](COC2=CC3=C(C=C2)NC(=O)N3)NC(=O)C4=CC=CN(C4=O)CC5=CC(=C(C=C5)F)F
Summary of the method: (§1)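 K562 pellets were dounce-homogenised in PBS pH 7.4 containing 1 mM MgCl2, and the crude extract, at 1 mg/mL protein, was exposed to 10 μM compound for 30 min. Aliquots were heated for 3 min across 48°C-58°C, pooled, brought to 0.5% NP-40 at 4°C and spun at 21,000xg for 90 min, with the supernatant taken as soluble protein. TMTpro 16plex LC-MS/MS with equalised channel sums quantified that protein. Values are log-two fold changes in thermal stability relative to solvent controls, taken from duplicates.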

[2] = compound: CC1=C(SC2=C1C(=N[C@H](C3=NN=C(N32)C)CC(=O)N)C4=CC=C(C=C4)Cl)C
Summary of the method: as §1

[3] = compound: CC1=C2C(=CC=C1)N=C(N(C2=O)C3=CC=CC=C3C)CN4C=NC5=C(N=CN=C54)N
Summary of the method: as §1

[4] = compound: Cc1sc2c(c1C)C(c1ccc(Cl)cc1)=N[C@@H](CC(=O)OC(C)(C)C)c1nnc(C)n1-2
Summary of the method: as §1

[5] = compound: c1ccc([C@@H]2C[C@H]2NC2CCNCC2)cc1
Summary of the method: as §1

Measured: log2 fold change

ACO1 (UniProt P21399)
inactive: [1] -0.003 | [2] -0.006 | [3] 0.015 | [4] 0.012 | [5] 0.027

ABI1 isoform 9 (UniProt Q8IZP0)
inactive: [1] -0.013 | [2] -0.008 | [3] -0.006 | [4] -0.004 | [5] -0.117

ABCF1 (UniProt Q8NE71)
inactive: [1] 0.006 | [2] 0.005 | [3] 0.03 | [4] -0.018 | [5] 0.003

AAK1 (UniProt Q2M2I8)
inactive: [1] -0.024 | [2] -0.028 | [3] -0.04 | [4] -0.088 | [5] -0.093

AASDHPPT (UniProt Q9NRN7)
inactive: [1] -0.007 | [2] 0.041 | [3] 0.001 | [4] 0.029 | [5] 0.015

AAGAB (UniProt Q6PD74)
inactive: [1] 0.001 | [2] 0.019 | [3] -0.067 | [4] 0.004 | [5] -0.05

ABCA4 (UniProt P78363)
inactive: [1] 0.003 | [2] 0.027 | [3] 0.002 | [4] -0.108 | [5] -0.11

ABCB10 (UniProt Q9NRK6)
inactive: [1] 0.013 | [2] 0.016 | [3] 0.015 | [4] 0.027 | [5] 0.004

ACO2 (UniProt Q99798)
inactive: [1] -0.006 | [2] 0.02 | [3] 0.029 | [4] 0.006 | [5] -0.009
